According to patent publication US20170144972A1, “METHODS OF LOWERING PROPROTEIN CONVERTASE SUBTILISIN/KEXIN TYPE 9 (PCSK9)” (Catabasis Pharmaceuticals, Inc., priority 2012, published 2017):

System: APOE*3Leiden mice
Assay: Plasma cholesterol and triglycerides in ApoE3Leiden mice on Western type diet, 2 and 4 weeks of treatment
Assay type: in vivo
Conditions: female APOE*3Leiden mice, WTD, I-8 0.75% w/w in diet, atorvastatin 0.0015% w/w in diet
Procedure: The study was conducted using female APOE*3Leiden mice (groups of each n=10) and one untreated reference control group on chow (n=5). To induce dyslipidemia, a high cholesterol Western type diet containing 1% cholesterol, 15% cacao butter, 40.5% sucrose and 1% corn oil (WTD) was fed to the mice for a total experimental period of 20 weeks (of which 4 weeks are a run-in period). To prevent oxidation of the test compound (I-8), 30 mg/kg alpha-tocopherol was added to the high cholesterol diets, i.e. also in the high cholesterol diet control.
In the first 4 weeks (run-in period), a pro-atherogenic state of dyslipidemia characterized by elevated plasma cholesterol levels (about 15-20 mM) was induced in all mice by feeding them an atherogenic diet containing 1% cholesterol. The mice were then separated into a control group (no treatment) and three treatment groups: i) compound I-8, ii) atorvastatin and iii) compound I-8+atorvastatin as as described below. The dyslipidemic mice were grouped on the basis of plasma cholesterol at t=0 assayed in 4 h fasting blood. Mice with low cholesterol after the run-in period were excluded so that homogenous experimental groups were obtained. A group of reference mice (n=5) remained on a chow diet during the complete study period (normolipidemic reference mice).
The doses of the test compounds were as follows: • Compound I-8: 0.75% w/w in diet. • Atorvastatin: 0.0015% w/w in diet (to achieve about 20% reduction in plasma cholesterol). • Alpha-tocopherol: 0.0030% w/w in diet
The test compounds, sufficient for approx. 3 kg of diet (i.e. 25 g of compound I-8), and alpha-tocopherol (>200 mg) were formulated before the start of the treatment period (t=0), by adding the test compounds to melted, hand warm cocoa butter and mixed for 5 min. This mix was then added to the master mix (containing the rest of the ingredients) and mixed thoroughly. The diet was frozen to −20° C. On the subsequent day, the diet was broken into small pellets (approx 5 g per piece) and freeze dried, and stored in vacuum sealed bags (approx 500 g) at −20° C. until use. […]

CC(C)c1c(C(=O)Nc2ccccc2)c(-c2ccccc2)c(-c2ccc(F)cc2)n1CC[C@@H](O)C[C@@H](O)CC(=O)O [atorvastatin, reference compound]
plasma cholesterol at t=2 weeks (FIG. 4) (2 weeks): statistically significant reduction
plasma cholesterol after 4 weeks of treatment (FIG. 5) (4 weeks): Comparable level of cholesterol reduction
plasma triglyceride levels after 4 weeks of treatment (FIG. 6) (4 weeks): failed to show a statistically significant change
